# Library screen at single concentrations

By UniProt entry, the sequences of proteins in these tests, tags left out. Residues count along the entry.
UniProt P9WPC5, whole entry: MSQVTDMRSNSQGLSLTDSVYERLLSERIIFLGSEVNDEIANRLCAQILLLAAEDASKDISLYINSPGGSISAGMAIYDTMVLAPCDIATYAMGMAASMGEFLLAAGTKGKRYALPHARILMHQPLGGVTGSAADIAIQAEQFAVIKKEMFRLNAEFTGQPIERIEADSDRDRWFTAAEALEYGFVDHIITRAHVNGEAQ
UniProt P9WPC3, whole entry partner: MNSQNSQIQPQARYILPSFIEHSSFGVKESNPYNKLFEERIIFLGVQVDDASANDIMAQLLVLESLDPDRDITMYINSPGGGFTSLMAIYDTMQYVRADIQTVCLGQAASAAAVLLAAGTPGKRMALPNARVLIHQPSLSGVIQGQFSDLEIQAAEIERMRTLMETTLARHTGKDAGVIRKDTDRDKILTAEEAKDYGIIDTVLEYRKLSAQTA
UniProt P9WNZ1, whole entry: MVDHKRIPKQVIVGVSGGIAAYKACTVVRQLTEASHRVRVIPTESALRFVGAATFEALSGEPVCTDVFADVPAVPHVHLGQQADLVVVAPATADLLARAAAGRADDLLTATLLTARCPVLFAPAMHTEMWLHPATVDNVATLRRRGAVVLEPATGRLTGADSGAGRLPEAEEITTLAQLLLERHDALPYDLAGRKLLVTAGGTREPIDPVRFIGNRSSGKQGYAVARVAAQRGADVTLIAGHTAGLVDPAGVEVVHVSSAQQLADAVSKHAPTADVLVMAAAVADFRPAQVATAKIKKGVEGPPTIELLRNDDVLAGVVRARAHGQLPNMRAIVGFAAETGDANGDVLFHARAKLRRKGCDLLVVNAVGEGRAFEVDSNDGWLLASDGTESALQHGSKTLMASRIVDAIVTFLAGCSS
UniProt Q8IDJ8, 1-583: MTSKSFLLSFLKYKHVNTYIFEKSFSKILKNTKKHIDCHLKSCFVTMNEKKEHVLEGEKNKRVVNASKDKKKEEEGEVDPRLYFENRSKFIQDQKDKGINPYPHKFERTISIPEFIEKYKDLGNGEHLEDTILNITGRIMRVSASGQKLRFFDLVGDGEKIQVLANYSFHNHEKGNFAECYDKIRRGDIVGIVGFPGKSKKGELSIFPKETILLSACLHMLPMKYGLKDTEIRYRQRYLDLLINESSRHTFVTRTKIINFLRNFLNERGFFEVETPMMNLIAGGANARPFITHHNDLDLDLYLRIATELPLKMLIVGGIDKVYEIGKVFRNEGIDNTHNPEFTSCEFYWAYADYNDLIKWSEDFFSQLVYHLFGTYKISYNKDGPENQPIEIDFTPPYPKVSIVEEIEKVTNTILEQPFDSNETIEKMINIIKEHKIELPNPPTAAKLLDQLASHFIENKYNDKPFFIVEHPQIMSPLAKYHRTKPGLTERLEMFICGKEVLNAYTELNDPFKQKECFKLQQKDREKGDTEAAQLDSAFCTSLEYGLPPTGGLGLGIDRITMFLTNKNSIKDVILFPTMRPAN
UniProt Q4DA54, 1-478: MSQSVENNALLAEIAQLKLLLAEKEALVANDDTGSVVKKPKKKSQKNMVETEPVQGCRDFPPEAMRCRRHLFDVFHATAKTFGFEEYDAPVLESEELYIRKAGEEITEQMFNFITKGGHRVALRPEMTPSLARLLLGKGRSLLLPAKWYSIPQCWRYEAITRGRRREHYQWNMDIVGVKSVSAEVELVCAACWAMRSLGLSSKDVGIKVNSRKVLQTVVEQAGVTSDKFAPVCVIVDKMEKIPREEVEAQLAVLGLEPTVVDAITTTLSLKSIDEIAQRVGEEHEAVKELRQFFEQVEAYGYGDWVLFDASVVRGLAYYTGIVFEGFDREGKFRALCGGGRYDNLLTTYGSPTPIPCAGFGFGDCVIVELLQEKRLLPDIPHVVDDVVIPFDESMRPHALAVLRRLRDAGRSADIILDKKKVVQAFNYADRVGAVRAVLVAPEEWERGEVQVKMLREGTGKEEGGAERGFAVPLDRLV
UniProt I6X8D2, whole entry: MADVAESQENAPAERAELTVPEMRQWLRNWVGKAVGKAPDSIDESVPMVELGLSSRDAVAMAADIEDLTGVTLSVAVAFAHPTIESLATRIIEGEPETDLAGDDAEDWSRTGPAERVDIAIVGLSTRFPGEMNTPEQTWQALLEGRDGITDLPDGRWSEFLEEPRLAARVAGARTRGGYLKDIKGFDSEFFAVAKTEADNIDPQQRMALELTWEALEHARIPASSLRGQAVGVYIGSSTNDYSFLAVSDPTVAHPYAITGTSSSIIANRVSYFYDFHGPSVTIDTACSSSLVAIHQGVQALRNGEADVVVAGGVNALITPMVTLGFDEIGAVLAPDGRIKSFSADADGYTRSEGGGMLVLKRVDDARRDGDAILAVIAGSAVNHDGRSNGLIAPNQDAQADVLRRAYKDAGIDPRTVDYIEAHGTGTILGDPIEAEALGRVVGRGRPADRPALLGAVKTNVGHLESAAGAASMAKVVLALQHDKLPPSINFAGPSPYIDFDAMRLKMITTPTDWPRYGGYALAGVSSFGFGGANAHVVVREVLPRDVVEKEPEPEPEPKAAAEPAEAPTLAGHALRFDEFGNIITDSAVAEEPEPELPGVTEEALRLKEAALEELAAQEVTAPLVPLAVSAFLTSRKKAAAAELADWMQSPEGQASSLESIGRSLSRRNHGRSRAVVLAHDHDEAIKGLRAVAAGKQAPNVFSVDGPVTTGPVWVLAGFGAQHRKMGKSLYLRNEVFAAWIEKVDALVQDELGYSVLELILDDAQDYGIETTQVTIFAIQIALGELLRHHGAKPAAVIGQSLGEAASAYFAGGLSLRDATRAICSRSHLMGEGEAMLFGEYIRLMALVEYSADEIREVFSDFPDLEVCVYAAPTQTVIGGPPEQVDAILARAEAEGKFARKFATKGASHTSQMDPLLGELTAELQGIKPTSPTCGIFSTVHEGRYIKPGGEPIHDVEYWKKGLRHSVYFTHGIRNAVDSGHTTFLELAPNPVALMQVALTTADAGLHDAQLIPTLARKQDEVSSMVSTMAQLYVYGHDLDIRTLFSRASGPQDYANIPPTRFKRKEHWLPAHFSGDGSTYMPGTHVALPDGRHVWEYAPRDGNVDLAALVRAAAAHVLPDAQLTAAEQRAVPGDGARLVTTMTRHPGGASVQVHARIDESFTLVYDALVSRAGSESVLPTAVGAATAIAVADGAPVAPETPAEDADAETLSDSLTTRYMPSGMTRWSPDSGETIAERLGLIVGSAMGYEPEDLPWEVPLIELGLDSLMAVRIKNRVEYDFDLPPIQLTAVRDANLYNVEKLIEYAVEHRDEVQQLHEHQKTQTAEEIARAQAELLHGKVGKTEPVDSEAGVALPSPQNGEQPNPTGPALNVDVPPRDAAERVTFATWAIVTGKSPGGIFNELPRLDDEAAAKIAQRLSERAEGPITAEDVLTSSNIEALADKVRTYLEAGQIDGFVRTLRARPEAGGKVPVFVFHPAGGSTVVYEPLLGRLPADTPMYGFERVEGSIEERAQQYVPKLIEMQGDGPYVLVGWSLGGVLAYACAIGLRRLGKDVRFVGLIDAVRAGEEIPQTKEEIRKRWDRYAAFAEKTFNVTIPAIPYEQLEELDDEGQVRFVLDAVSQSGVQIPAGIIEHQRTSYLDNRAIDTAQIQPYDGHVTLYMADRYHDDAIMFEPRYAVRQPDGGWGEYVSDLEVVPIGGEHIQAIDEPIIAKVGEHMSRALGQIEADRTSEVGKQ

ClpP1P2: 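ClpP1P2, Mycobacterium tuberculosis (UniProt P9WPC5 and UniProt P9WPC3). Protease assay of ClpP1P2, read by the AMC dye that it sets free. Concentration: 50 µM. Direction is inferred from only a few compounds that gave an IC50; most scored high, so higher reads as stronger inhibition. Most other retested compounds had strongly negative values. Of about 69,000 compounds tested this way, about 10 (0.015%) reached 50% or more in at least one test.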
CoaBC: 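Enzyme assay of CoaBC with a phosphate dye (Biomol Green) read at 650 nm. Target: Coenzyme A biosynthesis protein CoaBC, Mycobacterium tuberculosis (UniProt P9WNZ1). Tested at 30 µM. Direction is inferred from only a few compounds that gave an IC50; most scored high, so higher reads as stronger inhibition. Most strong results did not repeat in a second test. Of about 67,000 compounds tested this way, about 40 (0.06%) reached 50% or more in at least one test.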
PfKRS1: 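Enzyme assay of the cytosolic lysyl-tRNA synthetase in 384-well plates, read by luminescence. Target: Lysine-tRNA ligase, Plasmodium falciparum 3D7 (UniProt Q8IDJ8). Tested at 30 µM. Higher reads as stronger inhibition, judged from the few compounds that gave an IC50. Of about 69,000 compounds tested this way, about 49 (0.071%) reached 50% or more in at least one test.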
TcHisRS: 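Enzyme assay of histidyl-tRNA synthetase; the read-out is not stated. Target: Histidine-tRNA ligase, Trypanosoma cruzi CL Brener (UniProt Q4DA54). Compounds at 30 µM. Direction is inferred from retests: higher values go with stronger inhibition. Size under these conditions: about 69,000 compounds, about 31 of them at 50% or above in at least one test.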
Pks13 thioesterase: 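Enzyme assay of the thioesterase domain of polyketide synthase 13; the read-out is not stated. Target: Polyketide synthase Pks13, Mycobacterium tuberculosis (UniProt I6X8D2). Tested at 30 µM. Higher reads as stronger inhibition (inferred from which compounds were picked for retests). About 67,000 compounds were tested under these conditions; 0.46% (about 300) showed 50% or more at least once.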

Each number is a percent effect as filed.
The controls that fix the scale are not given in the record; negative values are as filed.
Compounds were drawn at random from those tested, without regard to their results.

{"smiles": "CC(C)(C)c1n[nH]c(C2CN(C(=O)c3cc(C4CC4)on3)CCO2)n1", "stereo": "stereo not shown", "ClpP1P2": -2.606, "CoaBC": 5.803, "PfKRS1": -1.985, "TcHisRS": 0, "Pks13 thioesterase": -21.77}
{"smiles": "NC(=O)CC1CCN(C(=O)c2cccn2Cc2cccs2)CC1", "ClpP1P2": -14.71, "CoaBC": 1.434, "PfKRS1": -0.4288, "TcHisRS": 2.857, "Pks13 thioesterase": -123}
{"smiles": "CCn1nc(C)c2nc(C(C)C)nc(N(C)Cc3ccco3)c21", "ClpP1P2": -8.226, "CoaBC": 5.443, "PfKRS1": 5.641, "TcHisRS": 4.969, "Pks13 thioesterase": 14.52}
{"smiles": "c1ccc(-c2nccc(CNC3CCc4ncnn4C3)n2)cc1", "stereo": "stereo not shown", "ClpP1P2": -6.962, "CoaBC": 0.9032, "PfKRS1": 1.826, "TcHisRS": 5.747, "Pks13 thioesterase": -8.904}
{"smiles": "CCC(=O)N(CCC(=O)O)Cc1ccc(F)c(F)c1", "ClpP1P2": -12.57, "CoaBC": -1.211, "PfKRS1": 0.5957, "TcHisRS": 3, "Pks13 thioesterase": -13.64}
{"smiles": "COCCn1cc2c(n1)C(CNC(=O)c1cc(C)[nH]c1C)OCC2", "stereo": "stereo not shown", "ClpP1P2": -5.873, "CoaBC": 2.545, "PfKRS1": 2.869, "TcHisRS": 12.85, "Pks13 thioesterase": 14.07}
{"smiles": "CC(C)=CCC/C(C)=C\\CNCc1ccco1", "ClpP1P2": -14.11, "CoaBC": -1.631, "PfKRS1": 5.621, "TcHisRS": 12.2, "Pks13 thioesterase": -20.84}
{"smiles": "COc1cc2c(c(OC)c1OC)CCN(CCN1CCCCC1)CC2", "ClpP1P2": -3.166, "CoaBC": -3.14, "PfKRS1": -3.22, "TcHisRS": 11, "Pks13 thioesterase": -9.389}
{"smiles": "CCOC(=O)N1CCC(Oc2ccc(C(F)(F)F)cn2)CC1", "ClpP1P2": -6.964, "CoaBC": 1.976, "PfKRS1": 0.3152, "TcHisRS": 7, "Pks13 thioesterase": -13.12}
{"smiles": "CCNC(=O)N1CCC(NC(=O)NCCc2cccc(C)c2)C1", "stereo": "stereo not shown", "ClpP1P2": -11.54, "CoaBC": -0.7444, "PfKRS1": 1.458, "TcHisRS": 8.671, "Pks13 thioesterase": -14.4}
{"smiles": "CCOc1ccc(CN(CCC#N)CCN2CCOCC2)cc1OC", "ClpP1P2": -6.578, "CoaBC": -1.205, "PfKRS1": -4.439, "TcHisRS": 1.98, "Pks13 thioesterase": -2.938}
{"smiles": "CSc1ncccc1C(=O)N1CCC2(CC1)c1nc[nH]c1CCN2C", "ClpP1P2": 6.717, "CoaBC": 8.46, "PfKRS1": 1.012, "TcHisRS": 7.447, "Pks13 thioesterase": -14.09}
{"smiles": "CCc1cc(N2CCC(NCCc3ccccc3F)CC2)nc(C)n1", "ClpP1P2": -6.052, "CoaBC": 12.42, "PfKRS1": -2.252, "TcHisRS": 7.463, "Pks13 thioesterase": -7.996}
{"smiles": "CC(=O)c1cccc(OCC(=O)NS(=O)(=O)c2ccc(Br)s2)c1", "ClpP1P2": -5.173, "CoaBC": 3.412, "PfKRS1": 2.21, "TcHisRS": 3.429, "Pks13 thioesterase": -3.353}
{"smiles": "Cn1cc(NC(=O)N2CCCC2c2ccccn2)ccc1=O", "stereo": "stereo not shown", "ClpP1P2": -0.6388, "CoaBC": 0.5964, "PfKRS1": 78.89, "TcHisRS": 69.31, "Pks13 thioesterase": -3.266}
{"smiles": "COc1ccc([C@@H]2NC(=O)N[C@H]3OCCC[C@H]32)cc1", "ClpP1P2": -3.045, "CoaBC": 2.184, "PfKRS1": 4.886, "TcHisRS": 7.921, "Pks13 thioesterase": 3.638}
{"smiles": "CC1CCN(Cc2c(C(C)C)[nH]c3ncccc23)CC1", "ClpP1P2": -3.386, "CoaBC": 2.086, "PfKRS1": 2.689, "TcHisRS": 7.752, "Pks13 thioesterase": 0.2686}
{"smiles": "COCCCN1CCC(CNc2nccc(-c3cnn(C)c3)n2)C1", "stereo": "stereo not shown", "ClpP1P2": -11.32, "CoaBC": -18.95, "PfKRS1": 1.469, "TcHisRS": 0, "Pks13 thioesterase": -31.53}
{"smiles": "Cn1cc(C(=O)CC2CCCN2C(=O)c2c[nH]c3ccccc23)cn1", "stereo": "stereo not shown", "ClpP1P2": -6.751, "CoaBC": 1.863, "PfKRS1": 0.7714, "TcHisRS": 2.579, "Pks13 thioesterase": 2.252}
{"smiles": "CN(C)C1CCCN(C(=O)NCCc2cc(F)ccc2F)C1", "stereo": "stereo not shown", "ClpP1P2": -13.51, "CoaBC": 1.09, "PfKRS1": 0.4137, "TcHisRS": 2.97, "Pks13 thioesterase": 2.08}
{"smiles": "c1ccc(COCCN2CCc3[nH]cnc3C2c2ccoc2)cc1", "stereo": "stereo not shown", "ClpP1P2": -12.78, "CoaBC": -1.225, "PfKRS1": 0.26, "TcHisRS": 2.381, "Pks13 thioesterase": -33.5}
{"smiles": "CNC(=O)Cc1coc(-c2ccc(F)cc2)n1", "ClpP1P2": 5.436, "CoaBC": 13.32, "PfKRS1": 4.135, "TcHisRS": 5.128, "Pks13 thioesterase": -13.09}

2 of the entries, repeated:

| SMILES | ClpP1P2 | CoaBC | PfKRS1 | TcHisRS | Pks13 thioesterase |
|---|---|---|---|---|---|
| `CC(=O)c1cccc(OCC(=O)NS(=O)(=O)c2ccc(Br)s2)c1` | -5.173% | 3.412% | 2.21% | 3.429% | -3.353% |
| `c1ccc(COCCN2CCc3[nH]cnc3C2c2ccoc2)cc1` (stereo not shown) | -12.78% | -1.225% | 0.26% | 2.381% | -33.5% |

Measurements from “University of Dundee, Small-Polar-MMV Screening Library” (2021), ChEMBL document CHEMBL3988442.